According to patent US11542277B2, “Nitrated hydrocarbons, derivatives, and processes for their manufacture” (Angus Chemical Company, priority 2008, dated 2023):

Experiment: DSC evaluation of oxazolidine hardeners in PF novolac resin formulations (curing onset/peak, heat of curing, Tg on re-scan)
Details: for Onset, curing event 1 (Onset/Peak 1) / Peak, curing event 1 (Onset/Peak 1): DSC 25-250 C at 10 C/minute, nitrogen; for Tg after cure: re-scan

CCCC1(CC)COCN1 (stereo not shown) [C]
Onset, curing event 1 (Onset/Peak 1) (PHR 72): 161.4 | Peak, curing event 1 (Onset/Peak 1) (PHR 72): 192.3 | Heat of curing, event 1 (PHR 72): (47.2) J/g | Observations After Cure (re-scan) (PHR 72): No exotherm, | Onset/Peak 2 (Heat J/g), second curing event (PHR 72): None | Tg after cure (PHR 72): Tg = 38 C.

c1ccc(C23COCN2COC3)cc1 [A]
Onset, curing event 1 (Onset/Peak 1) (PHR 48): 58.1 | Peak, curing event 1 (Onset/Peak 1) (PHR 48): 96.5 | Heat of curing, event 1 (PHR 48): (28.8) J/g | Heat of curing, event 2 (PHR 48): (161.2) J/g | Observations After Cure (re-scan) (PHR 48): No exotherm, | Onset, curing event 2 (Onset/Peak 2) (PHR 48): 202 | Peak, curing event 2 (Onset/Peak 2) (PHR 48): 224.1 | Tg after cure (PHR 48): Tg = 110 C.

CCCCC1(CC)COCN1 (stereo not shown) [D]
Onset, curing event 1 (Onset/Peak 1) (PHR 76): 62.3 | Peak, curing event 1 (Onset/Peak 1) (PHR 76): 105.5 | Heat of curing, event 1 (PHR 76): (11.0) J/g | Heat of curing, event 2 (PHR 76): (65.4) J/g | Observations After Cure (re-scan) (PHR 76): No exotherm, | Onset, curing event 2 (Onset/Peak 2) (PHR 76): 163.3/ | Peak, curing event 2 (Onset/Peak 2) (PHR 76): 184.9 | Tg after cure (PHR 76): Tg = 58 C.

C1CCC2(CC1)COCN2 [B]
Onset, curing event 1 (Onset/Peak 1) (PHR 72): 55 | Peak, curing event 1 (Onset/Peak 1) (PHR 72): 193.5 | Heat of curing, event 1 (PHR 72): (129.2) J/g | Observations After Cure (re-scan) (PHR 72): No exotherm, | Onset/Peak 2 (Heat J/g), second curing event (PHR 72): None | Tg after cure (PHR 72): Tg = 140 C.

CCC12COCN1COC2 [ZE]
Onset, curing event 1 (Onset/Peak 1) (PHR 33.3 (Baseline 1)): 166 | Peak, curing event 1 (Onset/Peak 1) (PHR 33.3 (Baseline 1)): 194 | Onset, curing event 1 (Onset/Peak 1) (PHR 44.2 (Baseline 2)): 171 | Peak, curing event 1 (Onset/Peak 1) (PHR 44.2 (Baseline 2)): 198 | Heat of curing, event 1 (PHR 33.3 (Baseline 1)): (264) J/g | Observations After Cure (re-scan) (PHR 33.3 (Baseline 1)): No exotherm, | Onset/Peak 2 (Heat J/g), second curing event (PHR 33.3 (Baseline 1)): None | Heat of curing, event 1 (PHR 44.2 (Baseline 2)): (244 J/g | Observations After Cure (re-scan) (PHR 44.2 (Baseline 2)): No exotherm, | Onset/Peak 2 (Heat J/g), second curing event (PHR 44.2 (Baseline 2)): None | Tg after cure (PHR 33.3 (Baseline 1)): Tg > 200 C. | Tg after cure (PHR 44.2 (Baseline 2)): Tg > 200 C.
